Measurements taken from the supplement of paper PMC3682954.
Where “and” joins values, the source holds several entries; their conditions need not be identical. Equal entries are not always repeated. Structures can show the parent of a compound that is named as a salt. ± gives the standard deviation of the averaged measurements. The list shows a part of the results. Most values come without repeats; read them as rough.

System: RAW 264.7
Assay: HMGB1-induced TNF-alpha production relative to HMGB1-stimulated control; higher = more TNF-alpha secretion (less inhibition)
Details: stimulus: HMGB1 5 ug/ml, 18 h
[1] = compound concentration: 1 ug/ml

| SMILES | HMGB1-induced TNF-alpha production (compound concentration: 3 uM) | HMGB1-induced TNF-alpha production [1] [%] |
| --- | --- | --- |
| O=c1ccc2ccccc2o1 | 75.6% | – |
| O=c1ccc2ccccc2o1 [Coumarin] | – | 68.8 |
| CN(C)CCCN1c2ccccc2Sc2ccc(Cl)cc21 [Chlorpromazine] | 83.2% | – |
| CN(C)CCCN1c2ccccc2Sc2ccc(Cl)cc21 | 74.6% | – |
| CN(C)CCCN1c2ccccc2Sc2ccc(Cl)cc21 [Chlorpromazine hydrochloride] | 62.8 ± 6.8% | – |
| Cc1ccsc1/C=C/C1=NCCCN1C [Morantel tartrate] | 70.6% | – |
| Cc1ccsc1/C=C/C1=NCCCN1C | 80.2% | – |
| CCCCCCCCCCCCCCCCOP(=O)([O-])OCC[N+](C)(C)C | 89.2% | – |
| CCCCCCCCCCCCCCCCOP(=O)([O-])OCC[N+](C)(C)C [Miltefosine] | 97.1% | – |
| CC(Cc1ccc(O)c(O)c1)(NN)C(=O)O (stereo not drawn) [S-(-)-Carbidopa] | 88.7% | – |
| CN(C)c1ccc(O)c2c1C[C@H]1C[C@H]3[C@H](N(C)C)C(O)=C(C(N)=O)C(=O)[C@@]3(O)C(O)=C1C2=O [Minocycline] | 86.1% | – |
| CN(C)c1ccc(O)c2c1C[C@H]1C[C@H]3[C@H](N(C)C)C(O)=C(C(N)=O)C(=O)[C@@]3(O)C(O)=C1C2=O | 93.7% | – |
| CN(C)c1ccc(O)c2c1C[C@H]1C[C@H]3[C@H](N(C)C)C(O)=C(C(N)=O)C(=O)[C@@]3(O)C(O)=C1C2=O [Minocycline hydrochloride] | 102 ± 20% | – |
| CCN1CCc2nc(N)oc2CC1 [B-HT 933 dihydrochloride] | 75.5% | – |
| C[N+](C)(C)CCOC(=O)CCC(=O)OCC[N+](C)(C)C [Succinylcholine] | 96.3% | – |
| C[N+](C)(C)CCOC(=O)CCC(=O)OCC[N+](C)(C)C [Succinylcholine chloride] | 109% | – |
| COc1cc(-c2oc3cc(O)ccc3c(=O)c2O)cc(OC)c1OC [Robinetin trimethyl ether] | – | 101 |
| O=c1c(O)c(-c2ccc(O)c(O)c2)oc2ccccc12 | – | 35.2 |
| CCOc1ccc2nc3cc(N)ccc3c(N)c2c1 | 78.8% | – |
| CCN(CC)CCNc1ccc(CO)c2sc3ccccc3c(=O)c12 | 54.8 ± 6.8% | – |
| CCN(CC)CCNc1ccc(CO)c2sc3ccccc3c(=O)c12 [Hycanthone] | 47.7% | – |
| CN(Cc1cnc2nc(N)nc(N)c2n1)c1ccc(C(=O)N[C@@H](CCC(=O)O)C(=O)O)cc1 [Methotrexate hydrate] | 89.4% | – |
| CN(Cc1cnc2nc(N)nc(N)c2n1)c1ccc(C(=O)N[C@@H](CCC(=O)O)C(=O)O)cc1 [Methotrexate] | 79.3% | – |
| CN(Cc1cnc2nc(N)nc(N)c2n1)c1ccc(C(=O)N[C@@H](CCC(=O)O)C(=O)O)cc1 | 99.9% | – |
| O=C(COc1ccc(Cl)cc1)N1CCN(Cc2ccc3c(c2)OCO3)CC1 | 82% | – |
| O=C(COc1ccc(Cl)cc1)N1CCN(Cc2ccc3c(c2)OCO3)CC1 [Fipexide hydrochloride] | 71.7% | – |

Single records, from the list above:
CN(C)CCCN1c2ccccc2Sc2ccc(Cl)cc21 [Chlorpromazine hydrochloride] is listed as HMGB1-induced TNF-alpha production (compound concentration: 3 uM): 62.8 ± 6.8%
CN(Cc1cnc2nc(N)nc(N)c2n1)c1ccc(C(=O)N[C@@H](CCC(=O)O)C(=O)O)cc1 [Methotrexate] is listed as HMGB1-induced TNF-alpha production (compound concentration: 3 uM): 79.3%
C[N+](C)(C)CCOC(=O)CCC(=O)OCC[N+](C)(C)C [Succinylcholine chloride] is listed as HMGB1-induced TNF-alpha production (compound concentration: 3 uM): 109%
C[N+](C)(C)CCOC(=O)CCC(=O)OCC[N+](C)(C)C [Succinylcholine] is listed as HMGB1-induced TNF-alpha production (compound concentration: 3 uM): 96.3%

The list goes on:

| SMILES | HMGB1-induced TNF-alpha production (compound concentration: 3 uM) | HMGB1-induced TNF-alpha production [1] [%] |
| --- | --- | --- |
| CNC(C)CCC=C(C)C (configuration not stated) [Isometheptene mucate] | 102% | – |
| CC(C)(C)CC(C)(C)c1ccc(O)c(Cc2ccc(Cl)cc2Cl)c1 | 60.4% | – |
| C[C@H]1[C@H](C)CC[C@]2(C(=O)O)CC[C@]3(C)C(=CC[C@@H]4[C@@]5(C)C[C@@H](O)[C@H](O)[C@@](C)(CO)[C@@H]5CC[C@]43C)[C@H]12 [Asiatic acid] | – | 82.7 |
| CCOC(=O)c1ccc(N)cc1 [Benzocaine] | 98.9% | – |
| CCOC(=O)c1ccc(N)cc1 | 85.4% | – |
| CCN(CC)CCOC(=O)C(c1ccccc1)c1ccccc1 [Adiphenine hydrochloride] | 80.1% | – |
| CCN(CC)CCOC(=O)C(c1ccccc1)c1ccccc1 | 99.2% | – |
| OC(CCCN1CCCCC1)(c1ccccc1)c1ccccc1 [Diphenidol hydrochloride] | 73.6% | – |
| C=CCn1c(=O)c2c(nc(-c3ccc(S(=O)(=O)O)cc3)n2C)n(C)c1=O [1-Allyl-3,7-dimethyl-8-p-sulfophenylxanthine] | 95.6% | – |
| C[C@]12CC[C@@H]3c4ccc(OS(=O)(=O)O)cc4CC[C@H]3[C@@H]1CCC2=O [Estropipate] | 117% | – |
| C[C@]12CC[C@@H]3c4ccc(OS(=O)(=O)O)cc4CC[C@H]3[C@@H]1CCC2=O | 79% and 99.1% | – |
| COc1cccc(OC)c1C(=O)N[C@@H]1C(=O)N2[C@@H]1SC(C)(C)[C@@H]2C(=O)O | 103% | – |
| Cc1cc2c(C(C)C)c(O)c(O)c(/C=N/n3c(=O)[nH][nH]c3=O)c2c(O)c1-c1c(C)cc2c(C(C)C)c(O)c(O)c(/C=N/n3c(=O)[nH][nH]c3=O)c2c1O | – | 63.7 |
| Cc1ccc(S(=O)(=O)NC(=O)NN2CCCCCC2)cc1 | 82.4% | – |
| Cc1ccc(S(=O)(=O)NC(=O)NN2CCCCCC2)cc1 [Tolazamide] | 86.5 ± 11% | – |
| COc1cc2c(CCNC(C)=O)c[nH]c2cc1Cl [6-Chloromelatonin] | 81.5% | – |
| CCCN(CCc1ccccc1)C1CCc2c(O)cccc2C1 (racemic) [(±)-PPHT hydrochloride] | 113% | – |
| CCCCC1(COC(=O)CCC(=O)O)C(=O)N(c2ccccc2)N(c2ccccc2)C1=O [Suxibuzone] | 80.7% | – |
| CCCCC1(COC(=O)CCC(=O)O)C(=O)N(c2ccccc2)N(c2ccccc2)C1=O | 74.6% | – |
| COc1cc(NC(C)CCCN)c2ncccc2c1 (configuration not stated) [Primaquine] | 82.3% | – |
| COc1cc(NC(C)CCCN)c2ncccc2c1 (configuration not stated) | 76% | – |
| COc1cc(NC(C)CCCN)c2ncccc2c1 (configuration not stated) [Primaquine diphosphate] | 87.2% | – |
| O=C(O)c1cc2cc3c4c(c2oc1=O)CCCN4CCC3 [Coumarin 343] | – | 83.1 |
| CCCCNc1c(C(=O)OCC)c(C)nc2c1cnn2CC [Tracazolate hydrochloride] | 82.1% | – |
| CCCCNc1c(C(=O)OCC)c(C)nc2c1cnn2CC [Tracazolate] | 85.1% | – |
| CO[C@H](C(=O)[C@@H](O)[C@@H](C)O)[C@@H]1Cc2cc3cc(O[C@H]4C[C@@H](O[C@@H]5C[C@@H](O)[C@H](O)[C@@H](C)O5)[C@H](O)[C@@H](C)O4)c(C)c(O)c3c(O)c2C(=O)[C@H]1O[C@H]1C[C@@H](O[C@@H]2C[C@@H](O)[C@@H](O[C@@H]3C[C@](C)(O)[C@H](O)[C@@H](C)O3)[C@@H](C)O2)[C@H](O)[C@@H](C)O1 [Plicamycin] | 114% | – |
